From patent US20100035904A1, “PHE[…]; METHODS OF MAKING; AND METHODS OF USE THEREOF” (priority 2008, published 2010)
Structures can show the parent of a compound that is named as a salt. At least one compound was matched to its structure with a doubt left.

Legend:
[1] = Stability of the salt in seven day toluene slurry (XRPD); format: physicochemical; details: ambient temperature, seven days
Experimental: Stability of the salt is evaluated using a seven day toluene slurry. Each salt (about 10-20 mg) is slurried in 250 microliters of toluene at ambient temperature for seven days in a 4 ml vial. After seven days, each sample is filtered and dried overnight at ambient temperature under vacuum. The samples are then analyzed by XRPD.

[2] = Moisture sorption experiments; format: physicochemical
Experimental: Moisture sorption experiments are carried out on about 10 milligrams (mg) of sample in a Pyrex bulb by first equilibrating the sample at 25° C./40% relative humidity (RH) until an equilibrium weight is reached. The sample is then subjected to an isothermal (25° C.) adsorption scan from 40 to 90% RH in steps of 10% RH. The sample is allowed to equilibrate to either an asymptotic weight or a maximum of four hours for each relative humidity. A desorption scan from 90 to 0% RH (at 25° C.) is then run in steps of −10% again allowing a maximum of four hours for equilibration or an asymptotic weight. Following desorption, an adsorption scan is performed from 0% RH to the initial 40% RH. The sample is then dried for one hour at 80° C. to obtain the dry weight.

In the case of `CCC1(c2ccccc2)C(=O)NC(=O)NC1=O` [phenobarbital potassium salt, phenobarbital potassium], the “XRPD of material following seven day toluene slurry” value [1] is reported as “consistent with the initial material”, the “hygroscopicity (moisture sorption analysis)” value ([2]; 25° C., 0-90% RH) is reported as “moderately hygroscopic” and the “water adsorbed at 90% RH” value ([2]; 25° C., 90% RH) is reported as 10.8 wt %. The “XRPD pattern of material following the moisture sorption experiment” value ([2]; after sorption/desorption and drying) was “consistent with the initial material”.
